Laboratory results from paper PMC8887752.
Results are given in words; binding and its absence hold for the method and conditions named. Some binding calls cover weakened binding; strength is not graded here.

Protein sequences, listed by entry. Tags and fused reporters are not part of them.
UniProt P61829: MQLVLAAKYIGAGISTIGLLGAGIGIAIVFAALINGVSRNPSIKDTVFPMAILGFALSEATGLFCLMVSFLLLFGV

Molecular target: Atp9 (yeast (endogenous in isolated mitochondria)) (UniProt P61829)
Experiment: SDS-PAGE and autoradiography of an SDS-resistant oligomer; translation products radiolabeled in isolated mitochondria for 30 minutes, chase with cold methionine at 30°C for 0, 10 or 30 minutes; monomeric and oligomeric Atp9 resolved by SDS-PAGE

binding: binds
Substance: Atp9 (from UniProt P61829 1-76)
